Structures can show the parent of a compound that is named as a salt. At least one compound was matched to its structure with a doubt left.
How the values were obtained:
p38 [1] = experiment: Western blot of p38 activation in HIV-infected macrophages; type: cell-based, human; conditions: whole cell lysates at day 9 p.i.
p38 [2] = experiment: Western blot of p38 activation in HIV-infected primary lymphocytes; type: cell-based, human; conditions: whole cell lysates at day 9 p.i.

CN(C)c1ccc(O)c2c1C[C@H]1C[C@H]3[C@H](N(C)C)C(O)=C(C(N)=O)C(=O)[C@@]3(O)C(O)=C1C2=O [Minocycline, [4S-(4a,4aa,5aa,12aa)-4,7-bis(dimethylamino)-1,4,4a,5,5a,6,11,12a-octahydro-3,10,12,12a-tetrahydroxy-1,11-dioxo-2-naphthacenecarboxamide]monohydrochloride]
activation of p38 (p38 [1]): not in macrophages
activation of p38 (p38 [2]): inhibited activation of p38
